Data: paper PMC5626541
These are yes or no findings as the source states them, for the method shown. Binding can be weak; no strength is given. For some assays here: Binding seen in cells or lysates may run through a third protein. For some assays here: Sequences can lack the tags named with a protein.

By UniProt entry, the sequences of proteins in these tests, tags left out. Where a name states a change or a piece, a line headed by the entry shows the natural chain unless it says otherwise.
UniProt Q9EP80: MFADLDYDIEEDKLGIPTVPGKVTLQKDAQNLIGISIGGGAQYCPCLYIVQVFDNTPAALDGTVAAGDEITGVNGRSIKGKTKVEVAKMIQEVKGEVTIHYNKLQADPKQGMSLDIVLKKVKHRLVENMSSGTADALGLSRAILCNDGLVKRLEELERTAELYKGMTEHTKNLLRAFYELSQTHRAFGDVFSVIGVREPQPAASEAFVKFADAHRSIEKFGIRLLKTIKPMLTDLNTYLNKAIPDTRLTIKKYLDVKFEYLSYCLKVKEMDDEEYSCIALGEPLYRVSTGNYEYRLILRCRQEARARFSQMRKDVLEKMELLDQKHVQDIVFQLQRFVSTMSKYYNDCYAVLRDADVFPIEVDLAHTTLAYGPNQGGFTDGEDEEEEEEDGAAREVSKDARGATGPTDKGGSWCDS
UniProt P19491: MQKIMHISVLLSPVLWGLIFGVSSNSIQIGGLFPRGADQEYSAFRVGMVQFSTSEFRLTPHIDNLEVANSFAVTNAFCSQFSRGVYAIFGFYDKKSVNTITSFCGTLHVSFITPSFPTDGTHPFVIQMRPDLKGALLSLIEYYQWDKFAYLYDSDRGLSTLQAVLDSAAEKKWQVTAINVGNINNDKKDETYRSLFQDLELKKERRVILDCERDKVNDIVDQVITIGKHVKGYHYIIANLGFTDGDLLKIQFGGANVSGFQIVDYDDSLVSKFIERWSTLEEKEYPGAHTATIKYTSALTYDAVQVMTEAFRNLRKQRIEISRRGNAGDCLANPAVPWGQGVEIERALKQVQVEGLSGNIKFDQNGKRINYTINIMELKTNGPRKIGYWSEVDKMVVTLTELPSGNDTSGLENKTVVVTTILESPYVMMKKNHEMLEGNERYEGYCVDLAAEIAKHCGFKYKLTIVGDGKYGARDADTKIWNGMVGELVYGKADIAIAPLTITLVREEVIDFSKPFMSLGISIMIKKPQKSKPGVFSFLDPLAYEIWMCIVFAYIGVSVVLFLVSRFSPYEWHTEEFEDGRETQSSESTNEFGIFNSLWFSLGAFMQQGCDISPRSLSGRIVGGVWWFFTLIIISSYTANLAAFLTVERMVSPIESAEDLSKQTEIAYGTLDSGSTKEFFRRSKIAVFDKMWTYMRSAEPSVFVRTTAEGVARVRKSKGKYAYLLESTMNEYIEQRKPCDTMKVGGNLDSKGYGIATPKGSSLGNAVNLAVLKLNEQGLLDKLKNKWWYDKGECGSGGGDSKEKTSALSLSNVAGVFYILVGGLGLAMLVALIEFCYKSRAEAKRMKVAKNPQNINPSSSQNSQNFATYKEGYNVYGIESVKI
UniProt P17427: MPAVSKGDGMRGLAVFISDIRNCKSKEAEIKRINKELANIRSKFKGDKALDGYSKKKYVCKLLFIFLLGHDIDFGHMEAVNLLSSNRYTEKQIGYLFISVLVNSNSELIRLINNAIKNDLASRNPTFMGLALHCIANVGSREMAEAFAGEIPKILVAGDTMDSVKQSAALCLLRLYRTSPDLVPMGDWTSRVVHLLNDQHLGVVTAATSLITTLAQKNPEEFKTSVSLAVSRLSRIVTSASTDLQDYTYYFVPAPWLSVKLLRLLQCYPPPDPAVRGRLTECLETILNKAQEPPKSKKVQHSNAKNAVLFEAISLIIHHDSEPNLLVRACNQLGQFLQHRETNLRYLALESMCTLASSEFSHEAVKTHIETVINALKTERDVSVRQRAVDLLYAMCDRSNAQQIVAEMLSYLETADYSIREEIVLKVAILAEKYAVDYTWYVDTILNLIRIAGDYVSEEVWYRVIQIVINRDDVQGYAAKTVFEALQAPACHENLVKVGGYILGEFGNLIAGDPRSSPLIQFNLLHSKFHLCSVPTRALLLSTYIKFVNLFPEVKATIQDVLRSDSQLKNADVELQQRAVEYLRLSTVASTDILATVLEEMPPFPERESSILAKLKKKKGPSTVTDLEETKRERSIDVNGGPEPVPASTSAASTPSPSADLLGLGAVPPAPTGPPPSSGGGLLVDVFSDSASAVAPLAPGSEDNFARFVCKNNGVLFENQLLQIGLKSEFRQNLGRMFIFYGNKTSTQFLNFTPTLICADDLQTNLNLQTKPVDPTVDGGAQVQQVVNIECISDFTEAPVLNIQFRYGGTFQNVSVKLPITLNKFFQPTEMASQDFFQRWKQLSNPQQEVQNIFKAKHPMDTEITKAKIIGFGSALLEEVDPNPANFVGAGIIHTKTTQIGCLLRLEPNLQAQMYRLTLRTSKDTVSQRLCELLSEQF

Columns and labels:
[1] = molecular target: GFP-dynamin 2 GTPase domain (UniProt P39052); test: co-IP; GFP-trap pulldown: extracts of cotransfected HEK293 cells in lysis buffer incubated with 10 µl GFP-trap agarose beads, Western blot
[2] = molecular target: GST-PICK1 (wild type) (UniProt Q9EP80); test: pull-down; competition with purified proteins: GST-WT-PICK1 or GST-DDAA-PICK1 immobilised on glutathione agarose, incubated with 20 nM his6-Myc-GluA2 C terminus and 0–30 nM his6 α-adaptin; both purified
[3] = molecular target: GST-GluA2 C terminus (UniProt P19491); test: pull-down; GST or GST fusion immobilised on glutathione agarose, incubated at 4°C with purified protein in direct binding buffer (20 mM Tris-HCl, 150 mM NaCl, 5 mM imidazole, 2 mM MgCl2, 1% Triton X-100, 1 mM DTT), Western blot; both purified
[4] = molecular target: GST-α-appendage (appendage domain of α-adaptin) (UniProt P17427); test: as above
[5] = molecular target: GFP-PICK1 BAR domain (UniProt Q9EP80); test: co-IP; GFP-trap pulldown: extracts of cotransfected HEK293 cells in lysis buffer incubated with 10 µl GFP-trap agarose beads, Western blot

Molecule: Flag-PICK1 (from UniProt Q9EP80 1-416)
- binding [1]: binds

Molecule: his6 α-appendage domain (from UniProt P17427) (domain or fragment)
- binding [2]: binds

Molecule: his6-D189A-PICK1 (from UniProt Q9EP80 1-416)
- binding [3]: binds

Molecule: his6-D356A-PICK1 (from UniProt Q9EP80 1-416)
- binding [3]: binds

Molecule: his6-Myc-GluA2 C terminus (from UniProt P19491) (domain or fragment)
- binding [2]: binds

Molecule: his6-PICK1 (wild type) (from UniProt Q9EP80 1-416)
- binding [3]: binds
- binding [4]: binds

B1: HA-dynamin 2 (protein, UniProt P39052 1-870)
chain: MGNRGMEELIPLVNKLQDAFSSIGQSCHLDLPQIAVVGGQSAGKSSVLENFVGRDFLPRGSGIVTRRPLILQLIFSKTEYAEFLHCKSKKFTDFDEVRQEIEAETDRVTGTNKGISPVPINLRVYSPHVLNLTLIDLPGITKVPVGDQPPDIEYQIKDMILQFISRESSLILAVTPANMDLANSDALKLAKEVDPQGLRTIGVITKLDLMDEGTDARDVLENKLLPLRRGYIGVVNRSQKDIEGRKDIRAALAAERKFFLSHPAYRHMADRMGTPHLQKTLNQQLTNHIRESLPTLRSKLQSQLLSLEKEVEEYKNFRPDDPTRKTKALLQMVQQFGVDFEKRIEGSGDQVDTLELSGGARINRIFHERFPFELVKMEFDEKDLRREISYAIKNIHGVRTGLFTPDLAFEAIVKKQVVKLKEPCLKCVDLVIQELISTVRQCTSKLSSYPRLREETERIVTTYIREREGRTKDQILLLIDIEQSYINTNHEDFIGFANAQQRSTQLNKKRAIPNQGEILVIRRGWLTINNISLMKGGSKEYWFVLTAESLSWYKDEEEKEKKYMLPLDNLKIRDVEKGFMSNKHVFAIFNTEQRNVYKDLRQIELACDSQEDVDSWKASFLRAGVYPEKDQAENEDGAQENTFSMDPQLERQVETIRNLVDSYVAIINKSIRDLMPKTIMHLMINNTKAFIHHELLAYLYSSADQSSLMEESAEQAQRRDDMLRMYHALKEALNIIGDISTSTVSTPVPPPVDDTWLQNTSSHSPTPQRRPVSSVHPPGRPPAVRGPTPGPPLIPMPVGATSSFSAPPIPSRPGPQNVFANNDPFSAPPQIPSRPARIPPGIPPGVPSRRAPAAPSRPTIIRPAEPSLLD
- binding [5]: binds
